Results are given in words; binding and its absence hold for the method and conditions named. Some binding calls cover weakened binding; strength is not graded here.
Molecular target: CDH3 protein Fragment 1 (positions 108 to 236 of SEQ ID NO: 38) (human) (UniProt P22223)
Experiment: Western blot, E. coli lysate, reducing gel

The chains behind the UniProt entries cited, without tags or fusion partners. Where a name states a change or a piece, a line headed by the entry shows the natural chain unless it says otherwise.
UniProt P22223: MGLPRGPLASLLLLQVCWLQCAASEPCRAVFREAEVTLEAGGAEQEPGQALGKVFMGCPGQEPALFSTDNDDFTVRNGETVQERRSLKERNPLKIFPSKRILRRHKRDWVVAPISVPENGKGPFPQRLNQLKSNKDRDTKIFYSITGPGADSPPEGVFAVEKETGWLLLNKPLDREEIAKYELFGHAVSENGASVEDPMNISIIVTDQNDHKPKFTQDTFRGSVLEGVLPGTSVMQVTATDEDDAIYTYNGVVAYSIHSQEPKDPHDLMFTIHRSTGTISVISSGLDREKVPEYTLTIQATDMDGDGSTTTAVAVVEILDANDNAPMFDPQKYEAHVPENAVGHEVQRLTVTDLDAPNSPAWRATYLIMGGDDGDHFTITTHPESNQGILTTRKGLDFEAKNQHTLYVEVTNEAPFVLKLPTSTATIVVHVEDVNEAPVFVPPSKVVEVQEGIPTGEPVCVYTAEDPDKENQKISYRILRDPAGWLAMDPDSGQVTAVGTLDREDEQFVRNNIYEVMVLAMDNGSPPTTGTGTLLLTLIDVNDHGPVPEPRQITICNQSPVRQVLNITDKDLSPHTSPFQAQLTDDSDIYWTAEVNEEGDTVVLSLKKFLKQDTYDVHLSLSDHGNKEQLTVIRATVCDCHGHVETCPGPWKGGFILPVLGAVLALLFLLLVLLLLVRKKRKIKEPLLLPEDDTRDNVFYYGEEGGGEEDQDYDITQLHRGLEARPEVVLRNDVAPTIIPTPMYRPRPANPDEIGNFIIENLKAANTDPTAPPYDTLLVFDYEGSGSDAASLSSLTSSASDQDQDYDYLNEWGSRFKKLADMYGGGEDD

binding: binds
B1: mouse antibody PPAT-057-17 (antibody, V domains shown)
VH: QVKLEESGPVLVAPSQSLSITCTVSGFSLTSYGVHWIRHPPGKGLEWLGVIWAGGNTIYNSALMSRLNISKDNSKSQVFLKMNSLQSDDSAMYYCAKPHYGDYAGFYALDHWGQGTSVTVSS
VL: DVQITQSPSYLAASPGETININCRASKRISKYLAWYQEKPGKTNRLLIYSGSTLQSGIPSRFSGSGSGTDFTLTISSLEPEDFAMYYCQQHNEYPWTFGGGTKLEIK
notes: Mouse monoclonal IgG from a hybridoma; kappa L chain primers were used
